Paper PMC6822764, “MitoToxy assay: A novel cell-based method for the assessment of metabolic toxicity in a multiwell plate format using a lactate FRET nanosensor, Laconic” (PLoS ONE, 2019)
Entries after “also recorded” stand apart in the source; their conditions may differ.

Test system: MitoTox Reporter cells (MDA-MB-231 expressing Laconic)
Assay: Pilot screening of 13 compounds with MitoTox Reporter cells, multiplate reader
Type: cell-based
Settings: 1, 5, and 10 μM
Method: MitoTox reporter cell line was cultured in Leibowitz media (Gibco) supplemented with 10% of fetal bovine serum (FBS) at 37°C at atmospheric CO2 levels in a 100 mm petri dish. Once cells reached 100% confluency, they were trypsinized using 5% trypsin (Gibco) and washed in PBS. Viability was determine using trypan blue staining and 10,000 cells were seeded into each well of a 96 well plate. Experiments in 96 well format were performed once cells reached 100% confluency after 6 days, during the incubation media was not replaced. All the plates with signal-to-noise ration below 1.3 for monomeric Teal Fluorescent Protein (mTFP) and Venus channels were discarded. Background signal was determined with KRH buffer without cells. […] Then 200 μl of KRH HEPES buffer without any carbon sources was added to each well and the baseline was measured (RMIN), then 100 μl of buffer was replaced with mitochondrial toxicant/controls and signal was measured to obtain a stimulated response (RMAX). […] All the experiments in 96 well plates were performed in an EnVision® multiplate reader (PerkinElmer). Each well was excited at 430 nm and the intensity of mTFP and Venus fluorescence emission were recorded at 485 nm and 528 nm, using a set of filters. […]

CCN(CC)CC(=O)Nc1c(C)cccc1C [lidocaine]
ΔR% variation / lactate accumulation over all concentrations tested: None of these molecules produced an important ΔR% variation; also recorded: did not induce intra-cellular lactate accumulation
